From paper PMC3715419
These are yes or no findings as the source states them, for the method shown.

Experiments:
MUS-81 (C. elegans) = target: T1, MUS-81 (C. elegans) (UniProt P91153); assay: two-hybrid; matrix-based, all pair-wise combinations; Gal4 DB-X (pVV212) in MATalpha Y8930 mated with AD-Y (pVV213) in MATa Y8800; diploids scored by growth on SC-Leu-Trp-His plates at 30°C; vector alone as negative control
T1 sequence: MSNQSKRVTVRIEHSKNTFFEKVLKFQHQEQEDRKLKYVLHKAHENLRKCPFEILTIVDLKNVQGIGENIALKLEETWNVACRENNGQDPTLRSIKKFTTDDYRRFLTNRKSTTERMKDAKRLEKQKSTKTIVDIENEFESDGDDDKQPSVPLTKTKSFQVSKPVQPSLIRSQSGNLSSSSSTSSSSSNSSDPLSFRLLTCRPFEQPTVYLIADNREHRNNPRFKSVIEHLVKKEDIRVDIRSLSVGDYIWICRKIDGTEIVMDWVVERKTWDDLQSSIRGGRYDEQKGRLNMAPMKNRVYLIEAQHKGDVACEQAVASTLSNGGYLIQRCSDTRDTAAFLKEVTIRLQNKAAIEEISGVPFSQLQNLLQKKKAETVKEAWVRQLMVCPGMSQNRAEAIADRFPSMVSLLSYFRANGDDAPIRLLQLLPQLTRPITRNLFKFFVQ

SLX-1 (C. elegans) = target: T2, SLX-1 (C. elegans) (UniProt P91351); assay: as above
T2 sequence: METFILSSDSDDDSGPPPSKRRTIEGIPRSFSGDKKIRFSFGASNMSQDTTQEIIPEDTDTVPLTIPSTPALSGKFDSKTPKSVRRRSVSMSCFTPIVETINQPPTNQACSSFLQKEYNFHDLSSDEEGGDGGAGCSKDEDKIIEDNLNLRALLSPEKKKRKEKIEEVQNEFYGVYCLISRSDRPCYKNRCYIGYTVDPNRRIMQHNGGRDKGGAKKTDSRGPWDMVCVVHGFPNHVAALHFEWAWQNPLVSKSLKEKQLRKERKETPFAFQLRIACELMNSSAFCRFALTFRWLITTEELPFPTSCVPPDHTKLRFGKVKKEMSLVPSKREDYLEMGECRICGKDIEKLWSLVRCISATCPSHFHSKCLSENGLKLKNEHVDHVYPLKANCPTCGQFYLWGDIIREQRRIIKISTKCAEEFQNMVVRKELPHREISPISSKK

binding (MUS-81 (C. elegans)): no binding
binding (SLX-1 (C. elegans)): no binding
B1: GEN-1 (protein, UniProt Q22418 1-434)
chain: MTINGIWEWANHVVRKVPNETMRDKTLSIDGHIWLYESLKGCEAHHQQTPNSYLVTFFTRIQRLLELKIIPIVVFDNINASSSAHESKDQNEFVPRKRRSFGDSPFTNLVDHVYKTNALLTELGIKVIIAPGDGEAQCARLEDLGVTSGCITTDFDYFLFGGKNLYRFDFTAGTSSTACLHDIMHLSLGRMFMEKKVSRPHLISTAILLGCDYFQRGVQNIGIVSVFDILGEFGDDGNEEIDPHVILDRFASYVREEIPARSEDTQRKLRLRRKKYNFPVGFPNCDAVHNAITMYLRPPVSSEIPKIIPRAANFQQVAEIMMKECGWPATRTQKELALSIRRKVHLTTTVAQTRIPDFFAATKSKNFTPIVEPCESLEDYISANNTWMRKRKRSESPQILQHHAKRQVPDRKRSVKIRAFKPYPTDVIELGDSD
